Consider 78 compounds from publication PMC12040169 (PLOS Biology, 2025).

The other results are listed elsewhere or left out.

This assay deals with T1, CTL2-GFP (C. trachomatis L2/434/Bu, GFP-expressing).
T1 construct: L2/434/Bu, GFP-expressing
Set-up: species or system HeLa; Intracellular C. trachomatis growth in HeLa cells, bulk GFP fluorescence relative to DMSO. The following applies: bulk GFP, single well; 28.5 h, 10 µM; inhibitor.
For the compound `OC[C@]1(c2ccccc2)CC[C@H](N2CCCC2)CC1` [CBK016010], the “% of control remaining” value was 127.079%.

For `CCCC1CN(C)c2ccccc2C1=O` (stereo not drawn) [CBK023527], the “% of control remaining” value is 135.985%.

In the case of `COc1ccc(CCC(=O)NCC(c2cccs2)N2CCOCC2)cc1` (stereo not drawn) [CBK304674], the “% of control remaining” value is 90.724%.

Consider `O=S(=O)(c1ccccc1)N(Cc1cc2ccccc2nc1O)CC1CCCO1` (stereo not drawn) [CBK269424], for which the “% of control remaining” value was 104.928%.

With `CC(C)c1noc([C@@H]2Cc3[nH]cnc3CN2C(=O)Nc2ccccc2)n1` [CBK288969], the “% of control remaining” value is recorded as 120.241%.

`C=CCNC(=O)N[C@H]1CCN2C(=O)c3ccccc3NC(=O)[C@@H]2C1` [CBK289568]: the “% of control remaining” value turned out to be 100.32%.

Consider `COC(=O)c1c(C)oc2cc(Br)c(OCC(=O)c3ccc(Cl)cc3)cc12` [CBK264946], for which the “% of control remaining” value is given as 126.266%.

As for `Cc1ccnc(NCC2CCN(Cc3cc(=O)n4ccccc4n3)C2)c1` (stereo not drawn) [CBK306003], the “% of control remaining” value is recorded as 107.118%.

Consider `COc1ccc(/C(N)=N/OC(=O)Cc2ccc(Cl)cc2)cc1OC` [CBK263272], for which the “% of control remaining” value amounted to 138.308%.

Turning to `O=C(N[C@H]1CCCC[C@H]1N1CCCC1)N[C@H]1CCCC[C@H]1N1CCCC1` [CBK003419], the “% of control remaining” value was 120.182%.

As to `Cc1ccnc(NS(=O)(=O)c2ccc(NC(=O)c3cc(-c4ccc(Br)cc4)nc4ccccc34)cc2)n1` [CBK263650], the “% of control remaining” value is listed as 100%.

`CN1CCC[C@@H]2[C@H]1[C@@H](c1ccc(F)cc1)CN2C(=O)c1ccccn1` [CBK283081]: the “% of control remaining” value turned out to be 120.533%.

For `COc1ccc(-n2ncc(-c3cccc(C(F)(F)F)c3)n2)cn1` [CBK112678], the “% of control remaining” value was determined as 134.608%.

For `COc1cccc(CN(Cc2ccco2)Cc2cnc(C)n2C)c1` [CBK282494], the “% of control remaining” value is reported as 99.1899%.

For the compound `CCCOc1cccn2c(N(CC(=O)N(C)C)C(C)=O)c(CC)nc12` [CBK147850], the “% of control remaining” value was found to be 102.481%.

Regarding `NS(=O)(=O)c1ccc(NS(=O)(=O)c2ccc(NC(=O)Nc3ccc(Cl)cc3)cc2)cc1` [CBK264902], the “% of control remaining” value is 81.9123%.

Turning to `CC(CC(=O)NC(c1ccc(F)cc1)c1nccn1C)n1cccn1` (stereo not drawn) [CBK281454], the “% of control remaining” value worked out at 117.942%.

For the compound `CSc1nc(NC(=O)c2cc(-c3ccccc3)oc2C)cc(N2CCNCC2)n1` [CBK050364T], the “% of control remaining” value is recorded as 119.546%.

On to `CSc1ccccc1C(=O)Nc1nccs1` [CBK288225], for which the “% of control remaining” value is 125.219%.

With `Cc1ccc(C)c(C(=O)C2=C(O)C(=O)N(CCN(C)C)C2c2ccc(O)cc2)c1` (stereo not drawn) [CBK265740], the “% of control remaining” value was 150.511%.

Consider `CC(CN1CCOCC1)NS(=O)(=O)c1cccc(C(=O)N2CCCC2)c1` (stereo not drawn) [CBK307053], for which the “% of control remaining” value is given as 118.343%.

For the compound `O=C(O)c1ccc(/C=N/NC(=O)c2ccco2)cc1` [CBK263569], the “% of control remaining” value worked out at 100%.

As for `CCn1c(SCc2cc(Cl)c3c(c2)OCCO3)nnc1-c1ccc(OC)cc1` [CBK297086], the “% of control remaining” value is on record as 111.698%.

In the case of `Cc1noc(C)c1S(=O)(=O)NCC(=O)N1CCOCC1` [CBK034476], the “% of control remaining” value worked out at 111.981%.

For the compound `CCOC(=O)C1CCCN(CCC(=O)Nc2cc(C)cc(C)c2)C1` (stereo not drawn) [CBK264284], the “% of control remaining” value is listed as 118.997%.

As for `CCOc1ccc(-c2nc(CSc3n[nH]c(=O)n3CCc3ccccc3)cs2)cc1` [CBK296735], the “% of control remaining” value came out at 134.739%.

For `O=C1NNC=Cc2c1cnc1nc(C(F)(F)F)nn21` [CBK288156], the “% of control remaining” value is given as 139.029%.

On to `O=C(NC1CCCN(c2ncccn2)C1)c1ccc(-c2ccc(F)cc2)s1` (stereo not drawn) [CBK298337], for which the “% of control remaining” value was found to be 147.442%.

On to `O=C(O)CCNC(=O)/C(=C/c1ccc(Cl)cc1)NC(=O)c1ccccc1` [CBK300484], for which the “% of control remaining” value came to 148.297%.

On to `CNc1nc(Cn2ncc(N3CCCN(C)CC3)cc2=O)cs1` [CBK307446], for which the “% of control remaining” value stood at 136.146%.

In the case of `Cc1nc2c(c(=O)[nH]1)CCN(Cc1c(C)oc3ccccc13)C2` [CBK283994], the “% of control remaining” value amounted to 117.16%.

`O=S(=O)(Nc1cccc2cccnc12)c1cccs1` [CBK043904]: the “% of control remaining” value is given as 144.997%.

On to `CC(C)C(=O)Nc1cc2cccnc2nc1-c1cccc(C(F)(F)F)c1` [CBK073657], for which the “% of control remaining” value turned out to be 115.61%.

For `CSc1ncc(Cl)c(C(=O)Nc2sc3c(c2C(=O)NC2CCS(=O)(=O)C2)CCC(C)C3)n1` (stereo not drawn) [CBK268886], the “% of control remaining” value was 156.602%.

Consider `O=C(CCn1c(C(F)(F)F)cc2cccnc21)NCc1ccncc1` [CBK284841], for which the “% of control remaining” value stood at 99.8925%.

As to `Cc1cc(CN(C)Cc2cnn(Cc3ccccc3)c2C)n[nH]1` [CBK283017], the “% of control remaining” value is listed as 119.946%.

Regarding `CCOC(=O)c1[nH]c2ccccc2c1NC(=O)c1ccc(Br)cc1Cl` [CBK160147], the “% of control remaining” value came to 110.673%.

`COc1ccc(-c2ccc3c(c2)COC2(CCCNC2)O3)c(OC)c1` (stereo not drawn) [CBK105316]: the “% of control remaining” value was 58.0421%.

For `CCc1cc(Br)ccc1S(=O)(=O)NCCCC(=O)OC` [CBK044788], the “% of control remaining” value is 143.849%.

In the case of `CC(C)(C)NS(=O)(=O)c1ccc(CCC(=O)Nc2ccc(F)c(Cl)c2)cc1` [CBK266974], the “% of control remaining” value is on record as 135.824%.

Consider `O=C(Cn1ccc([N+](=O)[O-])n1)NCc1ccco1` [CBK268999], for which the “% of control remaining” value is given as 119.294%.

`COc1cc(CNc2ccc(N3CCCCC3)cc2)ccc1OCc1ccccc1F` [CBK074472]: the “% of control remaining” value is on record as 87.3598%.

For `CNC(=S)N1CCN(c2nccnc2NS(=O)(=O)Cc2ccccc2)CC1` [CBK049044], the “% of control remaining” value was found to be 108.593%.

As to `c1ccc(Cc2csc(C3CN4CCCC4CO3)n2)cc1` (stereo not drawn) [CBK304202], the “% of control remaining” value was 121.661%.

For `O=C(Nc1cccc(Cl)c1)c1cc2cc(O)ccc2cc1O` [CBK016894], the “% of control remaining” value is on record as 120.607%.

Turning to `Cc1nn(CC(=O)N(C)C2CCCCC2)c(=O)c2cc3occc3n12` [CBK283653], the “% of control remaining” value is on record as 120.351%.

For `O=C(CC(NC1CCCC1)C(=O)O)Nc1ccc(F)cc1` (stereo not drawn) [CBK266976], the “% of control remaining” value was determined as 206.95%.

Take `Cc1cc([N+](=O)[O-])ccc1-c1ccc(C(=O)Nc2ccc(O)c(-c3nc4ccccc4s3)c2)o1` [CBK263421]: the “% of control remaining” value is reported as 124.82%.

Consider `COc1ccc(CN2CCOC(C(=O)O)C2)cc1Cn1cncn1` (stereo not drawn) [CBK306919], for which the “% of control remaining” value is listed as 120.654%.

On to `Cc1cc(OCC(=O)Nc2ccccc2CO)cc(C)c1Br` [CBK265094], for which the “% of control remaining” value was 100%.

With `COC(=O)c1ccc(NC(=O)CN2CCC(C(N)=O)(N3CCCCC3)CC2)cc1` [CBK268275], the “% of control remaining” value worked out at 111.217%.

With `COC(=O)c1cc(NS(=O)(=O)c2cc(Cl)ccc2Cl)cc(C(=O)OC)c1` [CBK077853], the “% of control remaining” value is listed as 109.994%.

In the case of `Cc1nc(N)nc(NCC(O)CN(C)C)c1Cl` (stereo not drawn) [CBK306963], the “% of control remaining” value turned out to be 118.274%.

Regarding `CCN1C(=O)c2[nH]nc(-c3ccccc3O)c2C1c1cccc(O)c1` (stereo not drawn) [CBK288159], the “% of control remaining” value stood at 106.577%.

With `O=C(O)c1ccc(/C=N/c2ccc(S(=O)(=O)c3ccc(/N=C/c4ccc(C(=O)O)cc4)cc3)cc2)cc1` [CBK262038], the “% of control remaining” value is on record as 117.517%.

Take `CNC(=S)N/N=C/c1c(C)cccc1Cl` [CBK021253]: the “% of control remaining” value is listed as 110.287%.

`Cc1ccc(CN(CCCn2ccnc2)Cc2ccsc2)o1` [CBK283253]: the “% of control remaining” value turned out to be 106.906%.

On to `Cc1cn(C2CC(O)C(C3N(c4ccccc4)CCN3c3ccccc3)O2)c(=O)[nH]c1=O` (stereo not drawn) [CBK201232], for which the “% of control remaining” value was 102.462%.

For the compound `Cc1cc(N2CCOCC2)c2c(N)c(Br)cc(C)c2n1` [CBK066880], the “% of control remaining” value came to 108.512%.

As for `CCN(CC)C(=O)CN1CCC(c2ccc(OC)cc2)CC1` [CBK283559], the “% of control remaining” value was 126.874%.

Regarding `Cc1cccnc1NC(=O)c1c(O)c2ccccc2n(C)c1=O` [CBK261431], the “% of control remaining” value came out at 115.78%.

As for `O=C(NCCCN1CCOCC1)c1cc2cc([N+](=O)[O-])ccc2oc1=O` [CBK263441], the “% of control remaining” value was 132.241%.

Regarding `O=S(=O)(Nc1ccc(C(O)(C(F)(F)F)C(F)(F)F)cc1)c1csc2ccccc12` [CBK062098], the “% of control remaining” value is recorded as 118.914%.

In the case of `CS(=O)(=O)N1CC2(CCNCC2)c2ccccc21` [CBK005171], the “% of control remaining” value is 112.105%.

As for `Cc1ccc(S(N)(=O)=O)cc1NC(=O)c1ccc[nH]1` [CBK050200], the “% of control remaining” value is 101.555%.

As for `Cc1ccc(S(=O)(=O)N2CCC(C(=O)NC(c3ccccc3C)c3ncccc3C)CC2)cc1` (stereo not drawn) [CBK060249], the “% of control remaining” value was found to be 123.156%.

For `CCCC/C=C/c1nccnc1NCCc1ccncc1` [CBK037370], the “% of control remaining” value was 135.775%.

In the case of `COc1ccc(C(=O)n2nc(SC)nc2N)cc1` [CBK006853], the “% of control remaining” value is on record as 143.107%.

With `O=C(NCCOc1ccccc1Cl)NC(=O)C1CCN(CCOc2ccc(Br)cc2)CC1` [CBK034897], the “% of control remaining” value amounted to 106.563%.

For the compound `CC(NC(=O)N(Cc1c[nH]c(-c2ccccc2)n1)CC(C)(C)CN)c1cccc2ccccc12` (stereo not drawn) [CBK026801C], the “% of control remaining” value was 53.6869%.

`COc1cc2c(c(OC)c1OC)CC(=O)NC21CCN(C(=O)CC(C)CC(=O)O)CC1` (stereo not drawn) [CBK047265]: the “% of control remaining” value stood at 109.155%.

For `CCN(CC)C(=O)Cn1nc(C)n2c(cc3occc32)c1=O` [CBK283620], the “% of control remaining” value is 109.172%.

Take `O=C(Nc1ccc(OCc2ccccc2F)cc1)c1ccc(-n2cnnc2)cc1` [CBK285816]: the “% of control remaining” value was found to be 144.388%.

`COCCn1c(-c2ccc(CN3CCCC3)cc2)cc2onc(C)c2c1=O` [CBK050385C]: the “% of control remaining” value is 75.09%.

For the compound `Cc1cccc(C(=O)NC(=S)Nc2cccc(C(=O)O)c2)c1` [CBK264987], the “% of control remaining” value came to 100.102%.

With `Cc1cc(OCC(=O)Nc2nn(Cc3ccccc3Cl)cc2Cl)ccc1[N+](=O)[O-]` [CBK268113], the “% of control remaining” value was determined as 120.636%.

`O=C(Nc1ccc(I)cc1C(=O)N1CCCCC1CCO)c1cccc2ccccc12` (stereo not drawn) [CBK266212]: the “% of control remaining” value is 129.959%.

In the case of `CCN(CC)C(=O)c1[nH]c2ccccc2c1NS(=O)(=O)c1ccc(F)cc1` [CBK050105], the “% of control remaining” value is recorded as 61.648%.
